PubChem BioAssay AID1259254 – NCATS – 2017
The whole screen tested about 59,000 reagents; shown is an unselected part. In the full data, about 1,550 (2.6%) are marked active. 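G2 share is only a proxy for re-replication; each gene was hit by three separate siRNAs, and active genes were retested.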 The raw values are shown without normalisation. Reagents against one gene are numbered here. Not given: the amount of reagent.

Aim: 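Genome-wide screen for genes that prevent DNA re-replication in cancer cells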 (primary screen)
System: human HCT116 colorectal cancer cells
Reagent: single siRNA against human genes
Time to read-out: 3 days
Detection: 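Imaged Hoechst DNA stain sorts each cell into a cycle phase by DNA amount; per plate, G2 fraction set to 0% for non-targeting and 100% for GMNN siRNA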
Reading the numbers: G2 robust z-score and G2 cells, % of GMNN control: higher = more G2 cells, more excess DNA replication; raw share of cells in G2: higher = larger share of cells with G2 DNA content
Call rule: 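Active siRNAs have a G2 robust z of 5 or more median absolute deviations over the median, which in these data means about 38% or higher of GMNN control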

no.	gene symbol	siRNA no.	G2 robust z-score	G2 cells, % of GMNN control	raw share of cells in G2 (%)	Call
1	ACSF3 (acyl-CoA synthetase family member 3)	1	-0.165	1.81	4.25	inactive
2	ACSF3 (acyl-CoA synthetase family member 3)	2	1.12	10.9	6.6	inactive
3	ACSF3 (acyl-CoA synthetase family member 3)	3	-0.811	-2.74	1.9	inactive
4	FAM90A3 (family with sequence similarity 90 member A3)	1	0.556	6.88	6.13	inactive
5	FAM90A3 (family with sequence similarity 90 member A3)	2	2.47	20.4	12.3	inactive
6	FAM90A3 (family with sequence similarity 90 member A3)	3	-0.554	-0.932	4.23	inactive
7	CD99L2 (CD99 molecule like 2)	1	-0.84	-2.94	3.13	inactive
8	CD99L2 (CD99 molecule like 2)	2	-0.99	-4	2.27	inactive
9	CD99L2 (CD99 molecule like 2)	3	0.16	4.1	3.65	inactive
10	SRP54 (signal recognition particle 54)	1	2.39	19.8	12.3	inactive
11	SRP54 (signal recognition particle 54)	2	1.31	12.2	8.72	inactive
12	SRP54 (signal recognition particle 54)	3	3.61	28.4	13.4	inactive
13	DYNC2I1 (dynein 2 intermediate chain 1)	1	-0.976	-3.9	3.03	inactive
14	DYNC2I1 (dynein 2 intermediate chain 1)	2	-0.719	-2.09	3.27	inactive
15	DYNC2I1 (dynein 2 intermediate chain 1)	3	-0.303	0.834	3.4	inactive
16	PERM1 (PPARGC1 and ESRR induced regulator, muscle 1)	1	-0.516	-0.664	3.89	inactive
17	PERM1 (PPARGC1 and ESRR induced regulator, muscle 1)	2	4.45	34.3	13.6	inactive
18	PERM1 (PPARGC1 and ESRR induced regulator, muscle 1)	3	0.724	8.06	4.85	inactive
19	OR6C4 (olfactory receptor family 6 subfamily C member 4)	1	5.74	43.4	18.9	active
20	OR6C4 (olfactory receptor family 6 subfamily C member 4)	2	-0.455	-0.237	3.16	inactive
21	OR6C4 (olfactory receptor family 6 subfamily C member 4)	3	0.564	6.94	6.98	inactive
22	CDCA7L (cell division cycle associated 7 like)	1	0.7	7.89	5.65	inactive
23	CDCA7L (cell division cycle associated 7 like)	2	-0.885	-3.26	3.27	inactive
24	CDCA7L (cell division cycle associated 7 like)	3	-0.261	1.13	4.61	inactive
25	SIGLEC10 (sialic acid binding Ig like lectin 10)	1	-0.0443	2.66	6.11	inactive
26	SIGLEC10 (sialic acid binding Ig like lectin 10)	2	-0.93	-3.57	4.01	inactive
27	SIGLEC10 (sialic acid binding Ig like lectin 10)	3	-0.251	1.2	4.93	inactive
28	MMP17 (matrix metallopeptidase 17)	1	-0.894	-3.32	4.4	inactive
29	MMP17 (matrix metallopeptidase 17)	2	1.06	10.4	8.59	inactive
30	MMP17 (matrix metallopeptidase 17)	3	-0.818	-2.79	2.87	inactive
31	FOXD2 (forkhead box D2)	1	1.5	13.5	10.1	inactive
32	FOXD2 (forkhead box D2)	2	-0.602	-1.27	4.78	inactive
33	FOXD2 (forkhead box D2)	3	-0.506	-0.594	3.45	inactive
34	SIMC1 (SUMO interacting motifs containing 1)	1	2.74	22.3	14.2	inactive
35	SIMC1 (SUMO interacting motifs containing 1)	2	-0.649	-1.6	3.22	inactive
36	SIMC1 (SUMO interacting motifs containing 1)	3	0.0827	3.55	4.95	inactive
37	PHTF1 (putative homeodomain transcription factor 1)	1	-1.18	-5.31	2.12	inactive
38	PHTF1 (putative homeodomain transcription factor 1)	2	-0.72	-2.1	5.65	inactive
39	PHTF1 (putative homeodomain transcription factor 1)	3	3.1	24.8	16.5	inactive
40	KRABD4 (KRAB domain containing 4)	1	-0.497	-0.532	4.25	inactive
41	KRABD4 (KRAB domain containing 4)	2	-0.968	-3.84	4.75	inactive
42	KRABD4 (KRAB domain containing 4)	3	-0.214	1.46	4.94	inactive
43	UBE2K (ubiquitin conjugating enzyme E2 K)	1	-0.274	1.04	5.42	inactive
44	UBE2K (ubiquitin conjugating enzyme E2 K)	2	-0.26	1.14	6.12	inactive
45	UBE2K (ubiquitin conjugating enzyme E2 K)	3	0.41	5.85	6.35	inactive
46	GKN2 (gastrokine 2)	1	-0.8	-2.66	2.65	inactive
47	GKN2 (gastrokine 2)	2	2.13	18	8.99	inactive
48	GKN2 (gastrokine 2)	3	-0.409	0.0929	2.79	inactive

Ordered by “raw share of cells in G2 (%)” (descending): 8 of the entries above
gene symbol	siRNA no.	G2 robust z-score	G2 cells, % of GMNN control	raw share of cells in G2 (%)	Call
OR6C4 (olfactory receptor family 6 subfamily C member 4)	1	5.74	43.4	18.9	active
OR6C4 (olfactory receptor family 6 subfamily C member 4)	3	0.564	6.94	6.98	inactive
SIGLEC10 (sialic acid binding Ig like lectin 10)	1	-0.0443	2.66	6.11	inactive
CDCA7L (cell division cycle associated 7 like)	1	0.7	7.89	5.65	inactive
CDCA7L (cell division cycle associated 7 like)	3	-0.261	1.13	4.61	inactive
SIGLEC10 (sialic acid binding Ig like lectin 10)	2	-0.93	-3.57	4.01	inactive
CDCA7L (cell division cycle associated 7 like)	2	-0.885	-3.26	3.27	inactive
OR6C4 (olfactory receptor family 6 subfamily C member 4)	2	-0.455	-0.237	3.16	inactive
